Measurements published in publication PMC7381744.
These are yes or no findings as the source states them, for the method shown. For part of these data: In cells and extracts the contact can be indirect. Some entries that bind do so weakly or less than the wild type. For part of these data: Where a sequence is shown, tags or fusion partners need not be part of it.

Legend:
Myc-NONO (human) = target: T1, Myc-NONO (human) (UniProt Q15233); test: co-IP; HEK293T cells transfected with Flag-STAT3 and Myc-NONO alone or in combination; lysate immunoprecipitated with Myc antibody, western blot with Myc and Flag antibodies; lysis buffer 50 mM Tris pH 7.4, 150 mM NaCl, 1% Triton X100, 1 mM EDTA
T1 sequence: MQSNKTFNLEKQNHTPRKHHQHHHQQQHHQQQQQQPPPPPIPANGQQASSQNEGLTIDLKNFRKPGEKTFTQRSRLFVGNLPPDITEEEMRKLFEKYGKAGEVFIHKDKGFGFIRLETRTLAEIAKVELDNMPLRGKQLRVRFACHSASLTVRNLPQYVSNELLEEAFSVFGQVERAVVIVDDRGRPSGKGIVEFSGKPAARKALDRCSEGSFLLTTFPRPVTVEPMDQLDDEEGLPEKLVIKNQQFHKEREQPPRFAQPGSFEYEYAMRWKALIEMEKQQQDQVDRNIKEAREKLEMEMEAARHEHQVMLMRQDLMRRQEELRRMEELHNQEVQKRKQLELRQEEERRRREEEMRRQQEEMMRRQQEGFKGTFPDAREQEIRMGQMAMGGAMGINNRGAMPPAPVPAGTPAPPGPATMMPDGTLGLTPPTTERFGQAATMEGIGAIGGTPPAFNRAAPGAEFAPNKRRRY

RFP-NONO (human) = target: T2, RFP-NONO (human) (UniProt Q15233); test: fluorescence cross-correlation spectroscopy (FCCS); live cells co-expressing GFP-STAT3 and RFP-NONO; strength given as relative cross-correlation amplitude, compared with GFP and RFP-NONO
T2 sequence: T1 sequence

[1] = target: T3, NONO (endogenous, MDA-MB-231) (human (endogenous in MDA-MB-231)) (UniProt Q15233); test: co-IP; MDA-MB-231 cell lysates immunoprecipitated with IgG, NONO or STAT3 antibodies; western blot with STAT3 and NONO antibodies; lysis buffer 50 mM Tris pH 7.4, 150 mM NaCl, 1% Triton X100, 1 mM EDTA
T3 sequence: T1 sequence

Substance: Flag-STAT3 (from UniProt P40763-1 1-770)
- binding (Myc-NONO (human)): binds

Substance: GFP-STAT3 (from UniProt P40763-1 1-770)
- binding (RFP-NONO (human)): binds

Substance: STAT3 (endogenous, MDA-MB-231) (from UniProt P40763-1 1-770)
- binding [1]: binds
